Literature values in patent US12622967B2, “Molecules, formulations, and methods for nutritional support of athletes, patients, and others” (Today, Inc., priority 2022, dated 2026).
Some entries share one result that the patent states for a list of compounds.

Conditions: high intensity exercise

In the case of O=C(CO)[C@@H](O)[C@H](O)[C@H](O)CO [fructose], the “time to be oxidized to energy” value is given as 20 to 30 min.
